Data published in the supplement of paper PMC12823440, “Inhibitors supercharge kinase turnover through native proteolytic circuits” (Nature, 2025).
Counter-ions that a name gives are not always drawn. This is one part of the list. Hit calls seldom repeat between salt and free forms of one compound.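 Kinases, fused to nanoluciferase, were expressed in K562 cells; luminescence was measured every 4 h from 2 to 18 h as percent of control (DMSO = 100%, positive control = 0%). A time point is decreased if signal falls significantly (2 sigma). Hits were called by the authors by a rule that is not shown; the count of time points alone does not decide it.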

Molecular target: EGFR_L861Q (UniProt P00533)
Experiment: number of time points (of 5) at which kinase-Nluc abundance scored as decreased, DMSO-normalised (count); higher = more persistent destabilization
Conditions: K562; 2-18 h

Compound	number of time points
CC(C)c1cc(/C=C(\C#N)C(N)=O)cc(C(C)C)c1O (10 µM)	0
CCCNC(=O)c1cn2ncnc(Nc3cc(C(=O)NC4CC4)ccc3C)c2c1C (10 µM)	0
COc1ccc2c(c1OC)OC1c3ccc(O)cc3OCC21 (stereo unspecified) [Methylnissolin] (10 µM)	0
CN(CC(=O)N(Cc1ccc(C2CCCCC2)cc1)c1ccc(C(=O)O)c(O)c1)S(=O)(=O)c1c(F)c(F)c(F)c(F)c1F (2.5 µM)	0
CCCCNC(=N)NC(=N)N [Buformin (hydrochloride)] (2.5 µM)	0
O=C1NCCCc2c1oc1ccc(O)cc21 (10 µM)	0
c1ccc(-c2oc3ncnc(NC[C@@H]4CCCO4)c3c2-c2ccccc2)cc1 (2.5 µM)	0
CC(=O)Nc1nc2ccc(-c3cnc(C)c(NC(=O)OC4CCCCC4)c3)cc2s1 (10 µM)	0
CCOc1ccccc1C=C1C(=O)Nc2ccccc21 (10 µM)	0
Cc1ccc(-c2nn(C(C)(C)CNC(=O)c3ccncc3)c3ncnc(N)c23)cc1 (2.5 µM)	0
CC[C@H](Nc1ncnc2[nH]cnc12)c1oc2ccccc2c(=O)c1-c1cccc(F)c1 [Tenalisib] (10 µM)	0
CC(C)(C)C(=O)N1N=CC[C@H]1c1ccccc1 (10 µM)	0
COC1(C(=O)N[C@@H](C)c2ccc(-n3cc(F)cn3)nc2)CCC(c2nc(C)cc(Nc3cc(C)[nH]n3)n2)CC1 (stereo partly drawn) [trans-Pralsetinib] (2.5 µM)	0
CN(C)Cc1cccc(N=C(c2ccccc2)c2c(O)[nH]c3cc(C(N)=O)ccc23)c1 (10 µM)	0
COc1nc(-c2ccnc(NC(=O)C3CC3)c2)sc1C(N)=O [GSK-3β inhibitor 2] (10 µM)	0
C=C[C@H]1[C@H](O[C@@H]2O[C@H](CO)[C@@H](O)[C@H](O)[C@H]2OC(=O)c2c(O)cc(O)cc2-c2cccc(O)c2)OC=C2C(=O)OCC[C@H]21 [Amarogentin] (10 µM)	0
COc1cc(C(C)=O)cc(OC)c1O [Acetosyringone] (10 µM)	0
O=C(O)CCc1ccc(NCc2cccc(Oc3ccccc3)c2)cc1 (10 µM)	0
Cc1cc(C(C)Nc2ccccc2)c2nc(N3CCOCC3)cc(=O)n2c1 (stereo unspecified) (10 µM)	0
O=C(O)c1ccc(-c2c[nH]c3ncc(-c4ccccc4)cc23)cc1C1CCCC1 (2.5 µM)	0
CC1=C(CC(=O)O)c2cc(F)ccc2/C1=C\c1ccc(C(C)C)cc1 (10 µM)	0
COc1cc(N2CCC(N(C)C)CC2)ccc1Nc1ncc(Cl)c(Nc2ccccc2P(C)(C)=O)n1 (2.5 µM)	0
Cc1ccc(-c2ccc3c(ccc4sc5c(c43)NC[C@@H](C)NC5=O)n2)cn1 (10 µM)	0
Nc1cc(C(F)F)c(-c2nc(N3C4CCC3COC4)nc(N3C4CCC3COC4)n2)cn1 (2.5 µM)	0
O=c1cc(-c2ccc(O)c(O)c2O)oc2ccccc12 (10 µM)	0
CC(C)c1ccc(CC(=O)N2CCN(c3ccc(C#N)nn3)CC2)cc1 (10 µM)	0
CN(C)Cc1cccc(N=C(c2ccccc2)c2c(O)[nH]c3cc(C(=O)N(C)C)ccc23)c1 (10 µM)	0

Molecular target: EGFR_T790M (UniProt P00533)
Experiment: as above
Conditions: K562; 2-18 h

Compound	number of time points
CN1CC[C@H](c2c(O)cc(O)c3c(=O)cc(-c4ccc(C(F)(F)F)cc4Cl)oc23)[C@H]1CO [(2S,3R)-Voruciclib (hydrochloride)] (2.5 µM)	0
CCn1nc(C2CCN(C(=O)CCO)CC2)nc1-c1cnc(N)c(-c2nnc(C(C)(C)C)o2)n1 (10 µM)	0
O=C(O)c1ccccc1Nc1cccc(C(F)(F)F)c1 [Flufenamic acid] (10 µM)	0
CNC(=O)c1ccc(-c2cnc3cnc(-c4ccccc4)cn23)cc1 (10 µM)	0
Nc1cccc(S(=O)(=O)N2CCCN(S(=O)(=O)c3ccc4c(c3)OCCO4)CC2)c1 (10 µM)	0
CC1(COc2ccc3c(c2)ncn3-c2ccc3cccc(N4CCC(N)CC4)c3n2)COC1 [Crenolanib] (2.5 µM)	0
O=C(CCCCCn1cc(Nc2ncc(Cl)c(Nc3ccc(Cl)cc3)n2)cn1)NO (2.5 µM)	1
CC(C)n1cnc2c(Nc3cccc(Cl)c3)nc(NCCO)nc21 (10 µM)	0
COc1ccc(CCNc2ncc3c(=O)n(-c4cccc(F)c4)c(=O)[nH]c3n2)cc1OC (2 µM)	0
OCCN(CCO)c1ccc(C(c2ccc(Cl)cc2)c2ccc(N(CCO)CCO)cc2)cc1 (10 µM)	0
CSc1ccc(CN2CCCC(Nc3ccc4[nH]ncc4c3)C2)cc1 (stereo unspecified) [Rho-Kinase-IN-1] (10 µM)	0
COc1cc(C(=O)N2CCC(N3CCN(C)CC3)CC2)ccc1Nc1ncc2c(n1)N(C)c1ccccc1C(=O)N2C (10 µM)	0
CC(C)c1cc(/C=C(\C#N)C(N)=O)cc(C(C)C)c1O (10 µM)	0
CCCNC(=O)c1cn2ncnc(Nc3cc(C(=O)NC4CC4)ccc3C)c2c1C (10 µM)	0
COc1ccc2c(c1OC)OC1c3ccc(O)cc3OCC21 (stereo unspecified) [Methylnissolin] (10 µM)	0
CN(CC(=O)N(Cc1ccc(C2CCCCC2)cc1)c1ccc(C(=O)O)c(O)c1)S(=O)(=O)c1c(F)c(F)c(F)c(F)c1F (2.5 µM)	0
CCCCNC(=N)NC(=N)N [Buformin (hydrochloride)] (2.5 µM)	0
O=C1NCCCc2c1oc1ccc(O)cc21 (10 µM)	0
c1ccc(-c2oc3ncnc(NC[C@@H]4CCCO4)c3c2-c2ccccc2)cc1 (2.5 µM)	0
CC(=O)Nc1nc2ccc(-c3cnc(C)c(NC(=O)OC4CCCCC4)c3)cc2s1 (10 µM)	0

Compound	number of time points
CCOc1ccccc1C=C1C(=O)Nc2ccccc21 (10 µM)	0
Cc1ccc(-c2nn(C(C)(C)CNC(=O)c3ccncc3)c3ncnc(N)c23)cc1 (2.5 µM)	0
CC[C@H](Nc1ncnc2[nH]cnc12)c1oc2ccccc2c(=O)c1-c1cccc(F)c1 [Tenalisib] (10 µM)	0
CC(C)(C)C(=O)N1N=CC[C@H]1c1ccccc1 (10 µM)	0
COC1(C(=O)N[C@@H](C)c2ccc(-n3cc(F)cn3)nc2)CCC(c2nc(C)cc(Nc3cc(C)[nH]n3)n2)CC1 (stereo partly drawn) [trans-Pralsetinib] (2.5 µM)	0
CN(C)Cc1cccc(N=C(c2ccccc2)c2c(O)[nH]c3cc(C(N)=O)ccc23)c1 (10 µM)	0
COc1nc(-c2ccnc(NC(=O)C3CC3)c2)sc1C(N)=O [GSK-3β inhibitor 2] (10 µM)	0
C=C[C@H]1[C@H](O[C@@H]2O[C@H](CO)[C@@H](O)[C@H](O)[C@H]2OC(=O)c2c(O)cc(O)cc2-c2cccc(O)c2)OC=C2C(=O)OCC[C@H]21 [Amarogentin] (10 µM)	0
COc1cc(C(C)=O)cc(OC)c1O [Acetosyringone] (10 µM)	0
O=C(O)CCc1ccc(NCc2cccc(Oc3ccccc3)c2)cc1 (10 µM)	0
Cc1cc(C(C)Nc2ccccc2)c2nc(N3CCOCC3)cc(=O)n2c1 (stereo unspecified) (10 µM)	0
O=C(O)c1ccc(-c2c[nH]c3ncc(-c4ccccc4)cc23)cc1C1CCCC1 (2.5 µM)	0
CC1=C(CC(=O)O)c2cc(F)ccc2/C1=C\c1ccc(C(C)C)cc1 (10 µM)	0
COc1cc(N2CCC(N(C)C)CC2)ccc1Nc1ncc(Cl)c(Nc2ccccc2P(C)(C)=O)n1 (2.5 µM)	0
Cc1ccc(-c2ccc3c(ccc4sc5c(c43)NC[C@@H](C)NC5=O)n2)cn1 (10 µM)	0
Nc1cc(C(F)F)c(-c2nc(N3C4CCC3COC4)nc(N3C4CCC3COC4)n2)cn1 (2.5 µM)	0
O=c1cc(-c2ccc(O)c(O)c2O)oc2ccccc12 (10 µM)	0
CC(C)c1ccc(CC(=O)N2CCN(c3ccc(C#N)nn3)CC2)cc1 (10 µM)	0
CN(C)Cc1cccc(N=C(c2ccccc2)c2c(O)[nH]c3cc(C(=O)N(C)C)ccc23)c1 (10 µM)	0
